Source: PubChem BioAssay AID540256 (National Center for Advancing Translational Sciences (NCATS), 2011)
The campaign covered roughly 300,000 compounds. About 3,700 (1.2%) were called active. Inconclusive results, whose numbers are uncertain, are shown with a selection of clear calls. Calls follow the shape of the full dose curve; tested in HEK293 cells. Potencies of inconclusive entries are doubtful fits and often do not repeat.

Test: qHTS for Inhibitors of binding or entry into cells for Lassa Virus; also: nearly all actives have a fitted effect of over 50% in size
Conditions: Lassa virus pseudotype entry inhibition, cell reporter; series mostly up to 37.9 µM
Potency is read from the fitted curve at half-maximal effect.

| SMILES | Potency |
| --- | --- |
| COc1ccc(OC)c(NC(=O)C(C)n2c(=O)cc(C)c3c(C)nn(-c4ccccc4)c32)c1 (stereo not given) | inactive |
| O=C1OC2(CCCCC2)CC2=C1[C@H]1O[C@](c3ccsc3)(Cc3c1ccc1ccccc31)O2 | inconclusive: 1.19 µM [activator, single point] |
| Cc1ccc(C)c(S(=O)(=O)NCc2ccc(C(=O)N3CC(C)OC(C)C3)cc2)c1 (stereo not given) | inactive |
| CC(=O)Nc1ccc2c(COC(=O)[C@@H](NS(=O)(=O)c3ccc(C)cc3)C(C)C)cc(=O)oc2c1 | inconclusive: 5.01 µM [inhibitor, partial curve, poor fit] |
| Cc1sc2ccccc2[n+]1CC(=O)O | inactive |
| COc1ccc(-c2cn3c(n2)sc2cc(C(=O)NCCC4=CCCCC4)ccc23)cc1 | inactive |
| O=C(O)c1cccnc1Nc1ccc(Cl)cc1 | inconclusive: 3.16 µM [inhibitor, full curve, poor fit] |
| CCCCN(C(=O)c1cc2c(s1)CCCCC2)c1c(N)n(CC(C)C)c(=O)[nH]c1=O | inconclusive: 35.5 µM [activator, partial curve, poor fit] |
| O=C(CN1CCC(n2nnc3cc(C(F)(F)F)ccc32)CC1)Nc1ccc2c(c1)CCC2 | inconclusive: 35.5 µM [inhibitor, single point] |
| Cc1ccc(S(=O)(=O)NC(=O)NN2CCCCCC2)cc1 | inconclusive: 20.6 µM [activator, partial curve] |
| O=C(NNC(=O)c1ccccc1O)c1cc2ccccc2o1 | inconclusive: 35.5 µM [inhibitor, single point] |
| COc1cccc(C(Nc2ccccn2)c2c(NC(=O)c3ccco3)sc(C)c2C)c1 (stereo not given) | inconclusive: 35.5 µM [inhibitor, single point] |
| O=C1CCc2cc(S(=O)(=O)NCCC(=O)N3CCN(c4cccc(Cl)c4)CC3)ccc2N1 | inconclusive: 32.6 µM [inhibitor, single point] |
| COc1ccccc1C1/C(=C(/O)c2ccc(OC(C)C)cc2)C(=O)C(=O)N1c1cc(C)on1 (stereo not given) | inconclusive: 0.231 µM [inhibitor, full curve, poor fit] |
| Clc1ccc(-n2cc(COCc3ccccc3)nn2)cc1 | inconclusive: 7.94 µM [inhibitor, partial curve, poor fit] |
| Cc1cccc(/C=N/NC(=O)c2cc(Br)ccc2O)n1 | inconclusive: 1 µM [activator, single point] |
| CC(C)(C)c1ccc(S(=O)(=O)Nc2cccc(C3OCCCO3)c2)cc1 | inconclusive: 29.1 µM [inhibitor, single point] |
| CCC(NC(=O)CNC(=O)CNC(=O)c1ccc(Cl)cc1Cl)c1ccc(C)cc1 (stereo not given) | inactive |
| CC(=O)Nc1ccc(S(=O)(=O)NCCSCc2ccc(Cl)cc2Cl)cc1 | inconclusive: 35.5 µM [inhibitor, single point] |
| COc1ccc(Cc2noc(CN3CCCC(OCc4ccccn4)C3)n2)cc1OC (stereo not given) | inconclusive: 7.08 µM [inhibitor, partial curve, poor fit] |
| CC(C)/C=N/NC(=O)c1cc(Br)ccc1O | inconclusive: 14.1 µM [activator, partial curve, poor fit] |
| O=C1CN(C(=O)c2cc3ccccc3o2)c2ccccc2N1 | inconclusive: 1.12 µM [activator, single point] |

| SMILES | Potency |
| --- | --- |
| COc1ccccc1/C=C/CN1CCCC(CO)(Cc2cccc(Cl)c2)C1 (stereo not given) | active: 14.1 µM |
| NNC(=O)CSCc1nc(-c2ccccc2)cs1 | inconclusive: 6.31 µM [activator, partial curve, poor fit] |
| C=CCOC(=O)Nc1ccc(Cl)cc1NC(=O)OCC=C | inactive |
| O=C(NN1C(=O)c2ccccc2NC1c1ccc([N+](=O)[O-])o1)c1ccccc1 (stereo not given) | inconclusive: 35.5 µM [inhibitor, single point] |
| CCc1cccc(CC)c1NC(=S)NCCc1c(C)[nH]c2ccccc12 | inconclusive: 29.1 µM [inhibitor, single point] |
| COc1cc(Cl)c(C)cc1NC(=O)c1cc(S(=O)(=O)N2CCCC2)ccc1F | inactive |
| Cc1ccc(NC(=O)COC(=O)[C@H](C)N2C(=O)C3CC=CCC3C2=O)cc1S(=O)(=O)N(C)C (stereo not given in full) | inconclusive: 1.26 µM [inhibitor, single point] |
| CCOC(=O)c1nnn(-c2nonc2N)c1CNc1ccc(C)c(Br)c1 | inconclusive: 20 µM [inhibitor, partial curve, poor fit] |
| CCCOc1ccc(NC(=O)CC2C(=O)N(CC)C(=S)N2CCCN2CCN(Cc3ccccc3)CC2)cc1 (stereo not given) | inconclusive: 35.5 µM [inhibitor, single point] |
| CCN(CC)S(=O)(=O)c1cccc(-c2nnc(SCCOc3ccc(Cl)cc3)o2)c1 | inconclusive: 35.5 µM [inhibitor, single point] |
| Cc1cccc(NC(=S)N2CCN(S(C)(=O)=O)CC2)c1 | inconclusive: 31.6 µM [activator, single point] |
| COc1ccc(CCN2C(=S)NC3CC2(C)Oc2ccc([N+](=O)[O-])cc23)cc1OC (stereo not given) | inconclusive: 5.17 µM [inhibitor, partial curve, poor fit] |
| CCOC(=O)c1sc(NC(=O)CNCc2ccccn2)c(C(=O)OCC)c1C | inconclusive: 15.8 µM [inhibitor, single point] |
| O=C(/C=C/c1cccs1)Nc1cccc(NC(=O)/C=C/c2cccs2)n1 | inconclusive: 12.6 µM [inhibitor, single point] |
| Cc1ccc(C2C(C#N)=C(N)N(N(C)C)C3=C2C(=O)CCC3)cc1 (stereo not given) | inactive |
| Cc1cc(C)c(S(=O)(=O)N2CCCCC2CCNC(=O)C(=O)NC2CC2)c(C)c1 (stereo not given) | active: 0.891 µM |
| CCOc1cc(NC(=O)c2ccco2)c(OCC)cc1NC(=O)Cc1cccc(OC)c1 | inconclusive: 20 µM [inhibitor, single point] |
| CCc1ccc(N2CC(c3nnc(NC(=O)c4ccco4)s3)CC2=O)cc1 (stereo not given) | inconclusive: 3.55 µM [activator, partial curve] |
| N#Cc1ccccc1NC(=O)CSc1nc(-c2ccccc2)cc(C(F)(F)F)c1C#N | inactive |
| C=CCOC(=O)C1=C(C)NC(SCC(=O)N(CC)CC)=C(C#N)C1c1ccccc1 (stereo not given) | inconclusive: 18.3 µM [inhibitor, single point] |
| Cc1cc(N2CCCC2)nc2ccc(NC(=S)NC(C)C)cc12 | inactive |
| Cc1cc(C(=O)COc2ccccc2Cl)c(C)n1-c1ccc2c(c1)OCO2 | active: 4.11 µM |

Exported with bars between the fields: entries from further up.
SMILES | Potency
COc1cc(Cl)c(C)cc1NC(=O)c1cc(S(=O)(=O)N2CCCC2)ccc1F | inactive
Cc1ccc(NC(=O)COC(=O)[C@H](C)N2C(=O)C3CC=CCC3C2=O)cc1S(=O)(=O)N(C)C (stereo not given in full) | inconclusive: 1.26 µM [inhibitor, single point]
CCOC(=O)c1nnn(-c2nonc2N)c1CNc1ccc(C)c(Br)c1 | inconclusive: 20 µM [inhibitor, partial curve, poor fit]

Continued.

| SMILES | Potency |
| --- | --- |
| COc1ccc(NC(=O)CCCn2c(=O)oc3ccccc32)cc1Cl | inactive |
| Cc1ccc(Cc2cnc(NC(=O)c3ccc4c(c3)CC(c3ccccc3)OC4=O)s2)cc1 (stereo not given) | inactive |
| CCc1cccc(C)c1N(C(=O)Cn1c(CO)nc2ccccc21)C(C)COC (stereo not given) | inconclusive: 1 µM [inhibitor, full curve, poor fit] |
| CN(C=[N+](C)C)c1cccc2c1C(=O)c1ccccc1C2=O | inconclusive: 11.2 µM [activator, partial curve, poor fit] |
| Cc1ccc(-c2c3c(=O)n(C)c(=O)n(C)c3cn2Cc2ccccc2)cc1 | inconclusive: 23.1 µM [activator, partial curve, poor fit] |
| O=C(c1ccc(CS(=O)Cc2ccc(Cl)cc2)o1)N1CCN(c2cccc(Cl)c2)CC1 (stereo not given) | inconclusive: 35.5 µM [inhibitor, single point] |
| O=C(c1cc2c(s1)CCCC2)N1CCC2(CC1)OCCO2 | inactive |
| Cc1cccc(C)c1OCC(=O)N(Cc1ccccc1F)C1CCS(=O)(=O)C1 (stereo not given) | inactive |
| COc1ccc(C(=O)N2CC(=O)Nc3ccc(Br)cc3C2c2ccc(F)cc2)cc1OC (stereo not given) | inconclusive: 35.5 µM [inhibitor, single point] |
| O=C(Nc1ccc2c(c1)OCCO2)c1cccnc1 | inconclusive: 23.1 µM [activator, partial curve, poor fit] |
| COc1ccc(OCc2ccc(C(=O)O)cc2)cc1 | inactive |
| O=C(CSc1nnc(-c2ccc(Cl)cc2)n1-c1ccc(Cl)cc1)N/N=C/c1ccco1 | inconclusive: 35.5 µM [inhibitor, partial curve, poor fit] |
| Cc1ccc(C(=O)NCc2ccco2)cc1S(=O)(=O)Nc1cccc(C)c1C | inconclusive: 5.17 µM [inhibitor, partial curve, poor fit] |
| O=C(NCc1ccco1)c1ccc(-c2ccccc2Cl)o1 | inconclusive: 6.31 µM [inhibitor, full curve, poor fit] |
| CC/C(C)=N/Nc1nc2sc3c(c2c(=O)[nH]1)CC(C)(C)OC3 | active: 5.01 µM |
| COc1ccc(Cl)cc1-n1c(C)cc(C=O)c1C | inconclusive: 2.24 µM [activator, partial curve, poor fit] |
| N#Cc1c(N)nc(SCc2ccccn2)c(C#N)c1-c1cccs1 | inconclusive: 2.06 µM [inhibitor, partial curve, poor fit] |
| CSc1nsc(NC(=O)CCNC(=O)c2ccc([N+](=O)[O-])cc2)n1 | inconclusive: 0.224 µM [inhibitor, full curve, poor fit] |
| CCC(c1nnnn1CS(=O)(=O)c1ccc(C)cc1)N1CCN(c2nc3ccccc3s2)CC1 (stereo not given) | inconclusive: 5.8 µM [inhibitor, full curve, poor fit] |
| Cc1ccc(-n2cnc3cc(C(=O)NCCC4=CCCCC4)ccc32)c(C)c1 | inconclusive: 1.58 µM [inhibitor, full curve, poor fit] |
| Cc1cc(NC(=O)c2ccccc2F)ccc1-c1nc2ccccc2s1 | inactive |
